Assay [1] has as its target T1, mature GDF-8 isolated from human serum (human) (UniProt O14793).
T1 sequence (looked up): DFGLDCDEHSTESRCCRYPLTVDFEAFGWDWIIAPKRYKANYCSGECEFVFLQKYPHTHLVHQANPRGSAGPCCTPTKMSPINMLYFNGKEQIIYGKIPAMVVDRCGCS
Description: co-purification with mature GDF-8 on JA16 beads from human serum, nanoflow LC-MS/MS.

Assay [2] has as its target T1, mature GDF-8 isolated from human serum (human). Description: co-purification with GDF-8 on JA16 beads from human serum, LC-MS/MS.
In assay [3] the target is T2, recombinant purified GDF-8 (UniProt O14793 267-375, limits assumed).
T2 sequence (looked up): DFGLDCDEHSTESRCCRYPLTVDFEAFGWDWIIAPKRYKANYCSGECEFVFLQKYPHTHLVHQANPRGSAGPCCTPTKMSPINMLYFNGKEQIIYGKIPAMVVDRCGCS
Description: co-immunoprecipitation with GDF-8 on JA16 beads, western blot.

Assay [4] deals with T3, mature GDF-8 isolated from normal mouse serum (mouse) (UniProt O08689).
T3 sequence (looked up): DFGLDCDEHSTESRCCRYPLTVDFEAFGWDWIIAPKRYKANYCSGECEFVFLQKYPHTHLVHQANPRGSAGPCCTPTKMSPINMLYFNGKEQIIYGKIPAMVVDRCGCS
Briefly: co-purification with GDF-8 on JA16 beads from mouse serum, LC-MS/MS against Celera database.

The target in assay [5] is T3, mature GDF-8 isolated from normal mouse serum (mouse). Description: co-purification with GDF-8 on JA16 beads from serum, LC-MS/MS.
Assay [6] has the same target. Briefly: large scale JA16-bead purification from mouse serum, nanoflow-LC-MS/MS.
Assay [7] has the same target. Briefly: co-purification with GDF-8 on JA16 beads from mouse serum, MS/MS.
In assay [8] the target is T2, recombinant purified GDF-8. Description: co-immunoprecipitation (JA16 or anti-V5 beads), western blot. On the technique in general: In western blotting, separated proteins are transferred to a membrane and probed.
Assay [9] has as its target T2, recombinant purified GDF-8. Briefly: co-immunoprecipitation with recombinant proteins.
Assay [10] addresses T4, recombinant purified GDF-8 propeptide (UniProt O14793).
T4 sequence (looked up): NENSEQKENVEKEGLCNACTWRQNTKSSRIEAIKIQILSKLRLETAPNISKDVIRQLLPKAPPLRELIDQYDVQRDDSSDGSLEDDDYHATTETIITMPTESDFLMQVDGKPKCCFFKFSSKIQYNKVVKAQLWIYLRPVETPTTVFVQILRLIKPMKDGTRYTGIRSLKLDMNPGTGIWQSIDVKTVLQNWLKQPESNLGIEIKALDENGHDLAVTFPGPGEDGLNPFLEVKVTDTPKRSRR
Description: co-immunoprecipitation with GASP1-V5-His on anti-V5 beads, western blot.

Assay [11] has as its target T2, recombinant purified GDF-8. The assay is described as above.
In assay [12] the target is T4, recombinant purified GDF-8 propeptide. Description: co-immunoprecipitation (anti-V5 beads), western blot.
The target of assay [13] is T3, mature GDF-8 isolated from normal mouse serum (mouse). Briefly: co-purification with GDF-8 on JA16 beads from mouse serum, MS/MS and western blot.

These are yes or no findings as the source states them, for the method shown. In cells and extracts the contact can be indirect. Some results given as binding are weak or reduced against the parent protein; the word gives no strength. For some of these results: Tags and fused reporters may be left off the sequences shown.

Regarding “GDF-8 propeptide from human serum (from UniProt O14793 24-266)”, the binding entry in assay [1] and in [2] was “binds” throughout.

Take “recombinant purified GDF-8 propeptide (from UniProt O14793 24-266)”: in assay [3], the binding entry is reported as “binds”.

B1: GDF-associated serum protein 1 (GASP1) from normal mouse serum (protein)
chain: LPPIRYSHAGICPNDMNPNLWVDAQSTCKRECETDQECETYEKCCPNVCGTKSCVAARYMDVKGKKGPVGMPKEATCDHFMCLQQGSECDIWDGQPVCKCKDRCEKEPSFTCASDGLTYYNRCFMDAEACSKGITLSVVTCRYHFTWPNTSPPPPETTVHPTTASPETLGLDMAAPALLNHPVHQSVTVGETVSFLCDVVGRPRPELTWEKQLEDRENVVMRPNHVRGNVVVTNIAQLVIYNVQPQDAGIYTCTARNVAGVLRADFPLSVVRGGQARATSESSLNGTAFPATECLKPPDSEDCGEEQTRWHFDAQANNCLTFTFGHCHHNLNHFETYEACMLACMSGPLATCSLPALQGPCKAYVPRWAYNSQTGLCQSFVYGGCEGNGNNFESREACEESCPFPRGNQHCRACKPRQKLVTSFCRSDFVILGRVSELTEEQDSGRALVTVDEVLKDEKMGLKFLGREPLEVTLLHVDWTCPCPNVTVGETPLIIMGEVDGGMAMLRPDSFVGASSTRRVRKLREVMYKKTCDVLKDFLGLQ
As to B1, the binding entry in [4], in assay [5], in assay [6] and in [7] was “binds” each time.

B2: mouse GASP1 cloned with a C-terminal V5-His tag (GASP1-V5-His) (other, not shown: small tags and cut ends)
chain: LPPIRYSHAGICPNDMNPNLWVDAQSTCKRECETDQECETYEKCCPNVCGTKSCVAARYMDVKGKKGPVGMPKEATCDHFMCLQQGSECDIWDGQPVCKCKDRCEKEPSFTCASDGLTYYNRCFMDAEACSKGITLSVVTCRYHFTWPNTSPPPPETTVHPTTASPETLGLDMAAPALLNHPVHQSVTVGETVSFLCDVVGRPRPELTWEKQLEDRENVVMRPNHVRGNVVVTNIAQLVIYNVQPQDAGIYTCTARNVAGVLRADFPLSVVRGGQARATSESSLNGTAFPATECLKPPDSEDCGEEQTRWHFDAQANNCLTFTFGHCHHNLNHFETYEACMLACMSGPLATCSLPALQGPCKAYVPRWAYNSQTGLCQSFVYGGCEGNGNNFESREACEESCPFPRGNQHCRACKPRQKLVTSFCRSDFVILGRVSELTEEQDSGRALVTVDEVLKDEKMGLKFLGREPLEVTLLHVDWTCPCPNVTVGETPLIIMGEVDGGMAMLRPDSFVGASSTRRVRKLREVMYKKTCDVLKDFLGLQ
For B2, the binding result in assay [8], in [9], in assay [3], in [10], in [11] and in [12] was “binds” throughout.

B3: follistatin-like related gene (FLRG) protein from normal mouse serum (protein, UniProt Q9EQC7 24-256, looked up)
chain: VMGSEDSVPGGVCWLQQGREATCSLVLKTRVSREECCASGNINTAWSNFTHPGNKISLLGFLGLVHCLPCKDSCDGVECGPGKACRMLGGRPHCECVPNCEGLPAGFQVCGSDGATYRDECELRTARCRGHPDLRVMYRGRCQKSCAQVVCPRPQSCLVDQTGSAHCVVCRAAPCPVPSNPGQELCGNNNVTYISSCHLRQATCFLGRSIGVRHPGICTGGPKVPAEEEENFV
As to B3, the binding entry in assay [6] and in [13] was “binds” throughout.

B4: human FLRG from human serum (protein, UniProt O95633 27-263, looked up)
chain: MGSGNPAPGGVCWLQQGQEATCSLVLQTDVTRAECCASGNIDTAWSNLTHPGNKINLLGFLGLVHCLPCKDSCDGVECGPGKACRMLGGRPRCECAPDCSGLPARLQVCGSDGATYRDECELRAARCRGHPDLSVMYRGRCRKSCEHVVCPRPQSCVVDQTGSAHCVVCRAAPCPVPSSPGQELCGNNNVTYISSCHMRQATCFLGRSIGVRHAGSCAGTPEEPPGGESAEEEENFV
As for B4, the binding result in [1] and in [2] was “binds” in each case.

B5: GDF-8 propeptide from normal mouse serum (protein, UniProt O08689 25-267, looked up)
chain: NEGSEREENVEKEGLCNACAWRQNTRYSRIEAIKIQILSKLRLETAPNISKDAIRQLLPRAPPLRELIDQYDVQRDDSSDGSLEDDDYHATTETIITMPTESDFLMQADGKPKCCFFKFSSKIQYNKVVKAQLWIYLRPVKTPTTVFVQILRLIKPMKDGTRYTGIRSLKLDMSPGTGIWQSIDVKTVLQNWLKQPESNLGIEIKALDENGHDLAVTFPGPGEDGLNPFLEVKVTDTPKRSRR
As to B5, the binding entry in assay [6] and in [13] was “binds” each time.

(Values after patent US20030162714A1 (Pfizer, published 2003).)
